Assay results reported in PMC7966362.

The chains behind the UniProt entries cited, without tags or fusion partners.
UniProt Q80SW1: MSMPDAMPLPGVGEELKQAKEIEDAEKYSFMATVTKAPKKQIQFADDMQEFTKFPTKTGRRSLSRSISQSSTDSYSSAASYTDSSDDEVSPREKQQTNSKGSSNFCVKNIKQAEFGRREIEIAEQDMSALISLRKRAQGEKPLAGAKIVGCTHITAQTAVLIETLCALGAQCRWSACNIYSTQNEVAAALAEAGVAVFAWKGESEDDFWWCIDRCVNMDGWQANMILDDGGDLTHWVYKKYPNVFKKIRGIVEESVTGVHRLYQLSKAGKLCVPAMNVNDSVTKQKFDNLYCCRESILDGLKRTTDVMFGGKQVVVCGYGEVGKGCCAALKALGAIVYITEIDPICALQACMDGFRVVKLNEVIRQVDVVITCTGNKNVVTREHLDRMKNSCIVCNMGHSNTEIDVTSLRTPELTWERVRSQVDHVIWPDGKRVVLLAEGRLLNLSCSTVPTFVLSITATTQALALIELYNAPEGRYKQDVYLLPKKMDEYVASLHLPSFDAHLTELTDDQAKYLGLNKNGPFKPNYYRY

Target: IRBIT (IP3R binding protein released with inositol 1,4,5-trisphosphate), endogenous (mouse (endogenous in B16-F10)) (UniProt Q80SW1)
Assay: affinity purification with mass spectrometry; immunoprecipitation of endogenous IRBIT and L-IRBIT from B16-F10 cells (legend: B16-BL6) with anti-IRBIT and anti-L-IRBIT antibodies; SDS-PAGE, silver staining; bands analysed by LC-MS/MS

B1: Anion exchanger 2 (AE2), endogenous (protein, UniProt P13808 1-1237)
chain: MSSAPRRPASGADSLHTPEPESLSPGTPGFPEQEEDELRTLGVERFEEILQEAGSRGGEEPGRSYGEEDFEYHRQSSHHIHHPLSTHLPPDARRRKTPQGPGRKPRRRPGASPTGETPTIEEGEEDEEEASEAEGFRAPPQQPSPATTPSAVQFFLQEDEGAERKPERTSPSPPTQTPHQEAAPRASKGAQTGTLVEEMVAVASATAGGDDGGAAGRPLTKAQPGHRSYNLQERRRIGSMTGVEQALLPRVPTDESEAQTLATADLDLMKSHRFEDVPGVRRHLVRKNAKGSTQAAREGREPGPTPRARPRAPHKPHEVFVELNELLLDKNQEPQWRETARWIKFEEDVEEETERWGKPHVASLSFRSLLELRRTLAHGAVLLDLDQQTLPGVAHQVVEQMVISDQIKAEDRANVLRALLLKHSHPSDEKEFSFPRNISAGSLGSLLGHHHAQGTESDPHVTEPLIGGVPETRLEVDRERELPPPAPPAGITRSKSKHELKLLEKIPENAEATVVLVGCVEFLSRPTMAFVRLREAVELDAVLEVPVPVRFLFLLLGPSSANMDYHEIGRSISTLMSDKQFHEAAYLADERDDLLTAINAFLDCSVVLPPSEVQGEELLRSVAHFQRQMLKKREEQGRLLPPGAGLEPKSAQDKALLQMVEVAGAAEDDPLRRTGRPFGGLIRDVRRRYPHYLSDFRDALDPQCLAAVIFIYFAALSPAITFGGLLGEKTKDLIGVSELIMSTALQGVVFCLLGAQPLLVIGFSGPLLVFEEAFFSFCSSNELEYLVGRVWIGFWLVFLALLMVALEGSFLVRFVSRFTQEIFAFLISLIFIYETFYKLIKIFQEHPLHGCSGSNDSEAGSSSSSNMTWATTILVPDNSSASGQSGQEKPRGQPNTALLSLVLMAGTFFIAFFLRKFKNSRFFPGRIRRVIGDFGVPIAILIMVLVDYSIEDTYTQKLSVPSGFSVTAPDKRGWVINPLGEKTPFPVWMMVASLLPAVLVFILIFMETQITTLIISKKERMLQKGSGFHLDLLLIVAMGGICALFGLPWLAAATVRSVTHANALTVMSKAVAPGDKPKIQEVKEQRVTGLLVALLVGLSMVIGDLLRQIPLAVLFGIFLYMGVTSLNGIQFYERLHLLLMPPKHHPDVTYVKKVRTMRMHLFTALQLLCLALLWAVMSTAASLAFPFILILTVPLRMVVLTRIFTEREMKCLDANEAEPVFDECEGVDEYNEMPMPV
binding: binds

Results are given in words; binding and its absence hold for the method and conditions named. Binding seen in cells or lysates may run through a third protein. These calls come from enrichment with a bait or labelling near it, and not all partners need be listed.
